# Experimental data taken from patent US20020164595.
# How the values were obtained:
# [1] = target: p53 wild-type (Homo sapiens) (UniProt P04637); experiment: pull-down
# [2] = target: p53 wild-type (Homo sapiens) (UniProt P04637); experiment: activity in cells; details: protein in cells, only the site is given
# [3] = protein in a lysate after overexpression, protein details: vaccinia-expressed lysate (HeLa or BSC40), label: 32P, variant of fragment A (772 CBE, subclone 10d)
sequence,measurement,setting,value
CCTTGCCTGGACTTGCCTGGCCTTGCCTTTTCTTTCTTTCTTTCTTTCTTTATTACTTTCTCTTTTTCTTCTTCTTCTTCTTCTTCTTCTTCTTCTTCTTCTTCTTCTTCTTCTTCTTCTTCTTCTTTTTTTTTTGAGACAGAGTTTCACTCTTGTTGCCCAGGCTAGAGGGCAATGGCGCGATCTCGG (double strand) [fragment A subfragment 3],binding result,[1]; [3],binds
AGTGAAAGCAGGTAGATTGCCTTGCCTGGACTTGCCTGGCCTTGCCTTTTCTTTC (double strand) [fragment A subfragment 5],binding result,[1]; [3],binds
"AATACGACTCACTATAGGGCGAATTGGGTACCGGGCCCCCCCTCGAGGTCGACGGTATCGATAAGCTTGATATTCTCCCCAGATGTAGTGAAAGCAGGTAGATTGCCTTGCCTGGACTTGCCTGGCCTTGCCTTTTCTTTCTTTCTTTCTTTCTTTATTACTTTCTCTTTTTCTTCTTCTTCTTCTTCTTCTTCTTCTTCTTCTTCTTCTTCTTCTTCTTCTTCTTCTTCTTTTTTTTTTGAGACAGAGTTTCACTCTTGTTGCCCAGGCTAGAGGGCAATGGCGCGATCTCGGCTCACCGCACCCTCCGCCTCCCAGGTTCAAGCGATTGGGGGATCCACTAGTTCTAGAGCGGCCGCCACCGCGGTGGAGCTCCAGCTTTTGTTCCCTTTAGTGAGGGTTAAT (double strand) [fragment A (772 CBE, subclone 10d)]",binding result,"[1]; immunoprecipitation, 100 mM NaCl, 5 mM EDTA, 4 C, protein in a lysate after overexpression, protein details: vaccinia-expressed lysate (HeLa or BSC40), label: 32P",binds
same,binding result,"[1]; immunoprecipitation, 4 C, poly dI-dC, purified recombinant protein, protein details: baculovirus-produced, affinity-purified, label: 32P",binds
CCTTGCCTGGACTTGCCTGGCCTTGCCTTTTCT (double strand) [fragment A subfragment 6],binding result,"[1]; 33 bp insert with three TGCCT repeats suffices, protein in a lysate after overexpression, protein details: vaccinia-expressed lysate (HeLa or BSC40), label: …, variant of fragment A (772 CBE, subclone 10d)",binds
CCTTGCCTTTTCTTTCTTTCTTTCTTTCTTTATTACTTTCTCTTTTTCTTCTTCTTCTTCTTCTTCTTCTTCTTCTTCTTCTTCTTCTTCTTCTTCTTCTTCTTCTTTTTTTTTTGAGACAGAGTTTCACTCTTGTTGCCCAGGCTAGAGGGCAATGGCGCGATCTCGG (double strand) [subfragment 3a (HaeIII-digested subfragment 3)],binding result,"[1]; binding greatly reduced, protein in a lysate after overexpression, protein details: vaccinia-expressed lysate (HeLa or BSC40), label: 32P, variant of fragment A subfragment 3",binds more weakly
AATACGACTCACTATAGGGCGAATTGGGTACCGGGCCCCCCCTCGAGGTCGACGGTATCGATAAGCTTGATATTCTCCCCAGATGTAGTGAAAGCAGGTAGATTGCCTTGCCTGGACTTGCCTGGCCTTGCCTTTTCTTTC (double strand) [fragment A subfragment 4],binding result,[1]; [3],binds
CCTTAATGGACTTTAATGG (double strand) [MG concatemer (MG15; repeat unit listed)],binding result,"[1]; MG15, protein translated in vitro, protein details: rabbit reticulocyte lysate, variant of PG concatemer (PGn, repeat unit listed)",no binding
same,activity on this sequence (relative CAT activity),"[2]; MG15-CAT in HCT 116, Exp. 2, variant of PG concatemer (PGn, repeat unit listed)",< 1
CCTGCCTGGACTTGCCTGG (double strand) [PG concatemer (PGn; repeat unit listed)],binding result,"[1]; PG16, co-translated R175H at 3:1 inhibits binding by over 90%, protein translated in vitro, protein details: rabbit reticulocyte lysate",binds
same,binding result,"[1]; binding increases with repeat number, purified recombinant protein, protein details: baculovirus-produced, affinity-purified",binds
same,activity on this sequence (relative CAT activity),"[2]; PG13-CAT in HCT 116, Exp. 1",100
TGCTCTCTTGCTTGCTACCATGTAAGACATGCCTGTGCTCCTCTTTTGCCTTCTGCCATGATTGTGAGACCTCCCCAGCCATGTGGAACTGTGAG (double strand) [fragment B subfragment 8],binding result,"[1]; protein in a lysate after overexpression, protein details: vaccinia-expressed lysate (HeLa or BSC40), label: 32P, variant of fragment B (Lambda 5R, subclone 8a)",binds

# For some of these results: Where cells or extracts were used, other partners may take part. For some of these results: A weaker result is weaker than the reference pair of the same experiment. Construct, isoform or probe ends are uncertain for at least one entry. For some of these results: A negative result means that nothing was seen under these conditions.
